Publication PMC6286816
No constants are given. Whether binding was seen depends on the method and setting. Binding seen in cells or lysates may run through a third protein. Some results given as binding are weak or reduced against the parent protein; the word gives no strength.

By UniProt entry, the sequences of proteins in these tests, tags left out.
UniProt Q2NL51: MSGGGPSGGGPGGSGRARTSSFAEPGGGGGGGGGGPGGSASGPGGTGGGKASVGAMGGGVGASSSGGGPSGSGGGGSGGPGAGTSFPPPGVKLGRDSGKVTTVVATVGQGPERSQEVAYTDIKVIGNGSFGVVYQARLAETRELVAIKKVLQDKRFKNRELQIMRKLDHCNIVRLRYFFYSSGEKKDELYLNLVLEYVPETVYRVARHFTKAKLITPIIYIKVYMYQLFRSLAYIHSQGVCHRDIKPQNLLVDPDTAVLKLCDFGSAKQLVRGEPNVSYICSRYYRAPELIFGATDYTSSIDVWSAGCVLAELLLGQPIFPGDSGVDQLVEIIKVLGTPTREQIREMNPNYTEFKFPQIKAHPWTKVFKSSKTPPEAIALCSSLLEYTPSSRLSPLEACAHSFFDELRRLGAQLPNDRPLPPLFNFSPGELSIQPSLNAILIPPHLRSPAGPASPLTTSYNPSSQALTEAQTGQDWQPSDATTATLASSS
UniProt Q8K1M6: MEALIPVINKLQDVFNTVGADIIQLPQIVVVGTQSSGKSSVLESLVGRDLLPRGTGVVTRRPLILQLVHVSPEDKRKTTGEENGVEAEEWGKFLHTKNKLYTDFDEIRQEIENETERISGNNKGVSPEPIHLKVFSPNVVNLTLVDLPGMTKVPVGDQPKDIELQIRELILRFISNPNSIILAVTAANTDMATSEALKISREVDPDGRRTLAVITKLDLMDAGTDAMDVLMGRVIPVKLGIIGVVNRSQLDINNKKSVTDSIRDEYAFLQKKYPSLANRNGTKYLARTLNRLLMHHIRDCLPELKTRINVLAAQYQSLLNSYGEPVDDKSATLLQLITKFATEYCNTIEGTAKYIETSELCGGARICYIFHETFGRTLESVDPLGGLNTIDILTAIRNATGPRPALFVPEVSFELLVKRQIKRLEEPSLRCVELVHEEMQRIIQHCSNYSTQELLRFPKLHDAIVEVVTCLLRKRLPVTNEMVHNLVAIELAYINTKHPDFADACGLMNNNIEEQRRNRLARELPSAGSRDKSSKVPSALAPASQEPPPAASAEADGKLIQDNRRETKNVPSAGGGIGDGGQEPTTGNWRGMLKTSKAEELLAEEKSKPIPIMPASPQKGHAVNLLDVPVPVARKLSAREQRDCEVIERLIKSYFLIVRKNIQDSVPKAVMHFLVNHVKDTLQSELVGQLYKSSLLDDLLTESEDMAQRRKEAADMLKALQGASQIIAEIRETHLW

Molecular target: Glycogen synthase kinase-3α (mouse (endogenous in TM4)) (UniProt Q2NL51)
Experiment: co-IP; 500 μg total protein of TM4 cells (control, heat shock, SB216763), precleared with protein A/G plus beads, incubated with 4 μg GSK3α antibodies overnight at 4°C, agarose beads 2 h at 4°C; blot for Ser637-Drp1

binding: binds
Substance: dynamin related protein 1 phosphorylated at Ser637 (from UniProt Q8K1M6 1-736)
